Among all 390,000 compounds or so, about 760 (0.19%) were called active. Inconclusive means that the source gave no clear call. Such entries were picked first, then a sample of the others. The call rests on the fitted dose curve; in most records, active means well fitted inhibition curve with a large enough effect; inconclusive means small, poorly fitted or top-dose-only effect; inactive means flat fitted curve, though single readings scatter. Potencies of inconclusive entries are doubtful fits and often do not repeat.
Test: qHTS for Inhibitors of Vif-A3F Interactions: qHTS; further: nearly all actives have a fitted effect of over 65% in size
Settings: HeLa A3F-eYFP + Vif (tagged APOBEC3F with the HIV-1 protein that degrades it), YFP fluorescence increase; series mostly up to 46.1 µM
Procedure, shortened: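 HeLa cells stably expressing A3F-eYFP plus Vif, plated and incubated overnight at 37 deg C, then exposed to compounds overnight at 37 deg C. Blocked degradation read as raised yellow fluorescence (Ex 488/Em 500-530).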
With `COc1ccc(C(=O)Nc2nnc(C3=COCCO3)o2)cc1` the Potency was inconclusive: 35.5 µM [inhibitor, single point]. With `Cc1nn(CC(=O)Nc2ccc(Cl)cc2)c(=O)c2cc(-c3ccccc3)nn12` the Potency was inconclusive: 10 µM [inhibitor, partial curve]. In the case of `NC(=O)CC(NC(=O)Cc1cccc2ccccc12)c1ccc(NC2CC3CCC2C3)c([N+](=O)[O-])c1` (configuration not stated), the Potency is reported as inconclusive: 17.8 µM [inhibitor, single point]. For `CCOC(=O)c1cnc(-n2nc(C)cc2C)nc1Oc1ccccc1F`, the Potency was inconclusive: 35.5 µM [inhibitor, single point]. With `O=C(c1cc2ccccc2o1)N1CCN(Cc2nc3ccccc3s2)CC1` the Potency was “inactive”. With `CCCCn1c(O)c(N=Nc2ccccc2O)c2ccccc21` the Potency was inconclusive: 35.5 µM [inhibitor, single point]. In the case of `N#Cc1ccc(-c2cccs2)nc1SCc1cccnc1`, the Potency is reported as “inactive”. For `CC(NC(=O)c1ccccc1F)c1nnc(SCc2nc3ccccc3c(=O)[nH]2)n1C` (configuration not stated), the Potency was inconclusive: 0.562 µM [inhibitor, full curve, poor fit]. With `CCc1ccc(NC(=O)c2sc3nc(C)c(C(=O)Nc4ccc(C)cc4C)c(-c4ccco4)c3c2N)cc1` the Potency was active: 12.6 µM. With `CCOC(=O)Cc1csc(NC(=O)c2sc3nc4ccc(CC)cc4cc3c2N)n1` the Potency was inconclusive: 11.2 µM [inhibitor, partial curve, poor fit]. For `CN(C)CCN(C(=O)c1ccc2ccccc2c1)c1nc2cc3c(cc2s1)OCCO3`, the Potency was inconclusive: 3.16 µM [inhibitor, single point]. With `CCSC1=NSC2=NC(=O)/C(=C\c3coc4ccccc4c3=O)C(=N)N12` the Potency was active: 25.1 µM. For `Cc1cc(NC(=O)COc2ccccc2)ccc1Cl`, the Potency was “inactive”. In the case of `COC(=O)c1ccccc1NC(=S)NC(NC(=O)COc1ccccc1)C(Cl)(Cl)Cl` (configuration not stated), the Potency is reported as inconclusive: 25.1 µM [inhibitor, single point]. With `CN(c1ccccc1)c1ccc(/C=C/[N+](=O)[O-])cc1` the Potency was inconclusive: 35.5 µM [inhibitor, single point]. With `O=C1C=CC(=O)N1c1ccc2c(c1)C(NC(=O)C(F)(F)F)c1ccccc1-2` (configuration not stated) the Potency was “inactive”. For `CCOC(=O)C1CCCN(C(=O)c2ccc3nc(-c4ccc(OC)c(OC)c4)c(-c4ccc(OC)c(OC)c4)nc3c2)C1` (configuration not stated), the Potency was inconclusive: 35.5 µM [inhibitor, single point]. With `C[C@H](CO)N1C[C@H](C)[C@@H](CN(C)C(=O)Nc2ccc3c(c2)OCO3)Oc2c(NC(=O)Nc3ccc(C(F)(F)F)cc3)cccc2C1=O` the Potency was “inactive”. For `CSc1nsc(/C=C/Nc2ccc(C(=O)O)cc2)c1C#N`, the Potency was inconclusive: 17.8 µM [inhibitor, partial curve, poor fit]. In the case of `Cc1ccc(OCCCCN2CCCCC2)cc1`, the Potency is reported as “inactive”. In the case of `CCCn1c(C2CCCN2c2nc(-c3ccc(C)cc3)cs2)nc2ccccc21` (configuration not stated), the Potency is reported as inconclusive: 35.5 µM [inhibitor, single point]. For `COc1ccc(/C=C2\SC(=S)N(CCC(=O)Nc3ccc(C(=O)O)cc3)C2=O)cc1OC`, the Potency was inconclusive: 35.5 µM [inhibitor, single point]. With `Cc1ccc(S(=O)(=O)N/N=C/c2ccc(O)c(O)c2)cc1[N+](=O)[O-]` the Potency was inconclusive: 10 µM [inhibitor, single point]. In the case of `Cc1ccc2nc(-c3cccc(SC4CCCCC4)c3)c(NC3CCCCC3)n2c1`, the Potency is reported as inconclusive: 35.5 µM [inhibitor, single point]. For `CCN(CC)c1ccc(C=Nc2ccc(N(C)C)cc2)c(O)c1`, the Potency was inconclusive: 25.1 µM [inhibitor, single point]. For `O=C(CSc1ncn[nH]1)Nc1cc(S(=O)(=O)N2CCCC2)ccc1Cl`, the Potency was inconclusive: 1.12 µM [inhibitor, full curve, poor fit]. For `CCCc1cc(=O)n2[nH]cc(-c3ccc(Cl)cc3)c2n1`, the Potency was inconclusive: 14.1 µM [inhibitor, single point]. With `COc1cccc(-c2nnc(NC(C)=O)o2)c1` the Potency was inconclusive: 17.8 µM [inhibitor, partial curve, poor fit]. In the case of `Nc1nc(Sc2ccc([N+](=O)[O-])c3nonc23)c2[nH]cnc2n1`, the Potency is reported as inconclusive: 17.8 µM [inhibitor, partial curve, poor fit]. With `CCOc1ccc(CNC(=S)N/N=C\c2ccc([N+](=O)[O-])cc2)cc1` the Potency was inconclusive: 8.91 µM [inhibitor, partial curve, poor fit]. In the case of `CC1CCCN(CCCNC(=O)c2cc3c(Cl)nc4ccccc4c3s2)C1` (configuration not stated), the Potency is reported as inconclusive: 35.5 µM [inhibitor, partial curve, poor fit]. In the case of `N/N=C(\c1ccccc1)c1cc(Cl)ccc1N`, the Potency is reported as inconclusive: 35.5 µM [inhibitor, single point]. In the case of `C/C(=N\NC(=O)c1cccc(S(=O)(=O)Nc2ccccc2Cl)c1)c1ccc(-n2ccnc2)cc1`, the Potency is reported as “inactive”. In the case of `C=CCN1C(=O)/C(=C/C(=O)OC)S/C1=N\NC(=O)c1ccccc1`, the Potency is reported as “inactive”. For `COc1ccc(CC2=CC(=O)c3ccccc3C2=O)cc1`, the Potency was inconclusive: 6.31 µM [inhibitor, single point]. With `CN(C)c1ccc(/C=N/Nc2cccc(C(=O)O)c2)cc1` the Potency was inconclusive: 25.1 µM [inhibitor, single point]. For `CCn1c(Oc2ccccc2)nc2c1c(=O)n(C)c(=O)n2C`, the Potency was “inactive”. For `COc1ccc(OC)c(NC(=O)COc2ccc(Br)cc2)c1`, the Potency was inconclusive: 3.16 µM [inhibitor, partial curve, poor fit]. For `O=C(COC(=O)c1ccccn1)Nc1ccccc1OC(F)F`, the Potency was inconclusive: 35.5 µM [inhibitor, single point]. In the case of `Cc1ccc(C)c(-n2nnc(C(=O)Nc3ccc(Br)cc3)c2C)c1`, the Potency is reported as “inactive”. For `COc1ccc(NC(=O)C2C3C=CC4(O3)C2C(=O)N(CCN2CCCCC2C)C4C(=O)NC2CCCC(C)C2C)cc1` (configuration not stated), the Potency was inconclusive: 25.1 µM [inhibitor, single point]. In the case of `Cc1cccc(NC(=O)c2cccc(S(=O)(=O)N3CCCCC3)c2)c1`, the Potency is reported as inconclusive: 17.8 µM [inhibitor, partial curve].

— PubChem BioAssay AID602313 (National Center for Advancing Translational Sciences (NCATS), 2012)
Potency means the concentration at half of the fitted maximal effect.
